The values that follow come from patent US20210002378A1.

No constants are given. Whether binding was seen depends on the method and setting.

Assay [1] deals with SEAP-His. Nature of the assay: ELISA: SEAP-His proteins captured by anti-6-His antibody, antibody B at one concentration, HRP anti-human IgG, OD450 nm as % of human EphA4-SEAP-His.
The target in assay [2] is SEAP-His. Nature of the assay: ELISA: SEAP-His proteins captured by anti-6-His antibody, antibody A at one concentration, HRP anti-mouse IgG, OD450 nm as % of human EphA4-SEAP-His.

B1: humanized anti-EphA4 monoclonal antibody (antibody B) (antibody, V domains shown)
VH: QVQLVESGGGVVQPGRSLRLSCAVSGFSLTRFGVHWVRQAPGKGLEWVAVIWRGGSTDYNAAFMSRLTISKDNSKNTVYLQMNSLRAEDTAVYYCAKESLFGVYYDYGYYSMDYWGQGTTVTVSS
VL: DIQMTQSPSSLSASVGDRVTITCRASQEISGYLSWLQQKPGKAPKRLIYAASTLDSGVPSRFSGSRSGTEYTLTISSLQPEDFATYYCLQYASYPLTFGGGTKVEIKR
For the molecule B1, the binding entry in the assay with SEAP-His [1] was “no binding (tested: 10 µg/mL)”.

B2: mouse anti-EphA4 monoclonal antibody (antibody A) (antibody, mouse IgG1, kappa, V domains shown)
VH: QVQLKQSGPSLVQPSQSLSITCTVSGFSLTRYGVHWVRQSPGKGLEWLGVIWRGGSTDYNAAFMSRLSITKDNSKSQVFFKMNSLQADDTAIYYCAKESLFGVYYDYGYYSMDYWGQGTSVTVSS
VL: DIQMTQSPSSLSASLGERVSLTCRASQEISGYLSWLQQKPDGTIKRLIYAASTLDSGVPKRFSGSRSGSDYSLTISSLESEDFADYYCLQYASYPLTFGAGTKLELKR
Turning to B2, the binding result in the assay with SEAP-His [2] is given as “no binding (tested: 10 µg/mL)”.
